{
  "source": "patent US10207050B2",
  "about": "“Computer-implemented method for controlling dispensing of a biologically active agent; computer system and software thereof” (SINGAPORE HEALTH SERVICES PTE LTD, priority 2011, dated 2019)",
  "test_system": "nulliparous parturients in early labour",
  "test": "Randomized study of labour epidural analgesia maintenance after CSE: PCEA with variable-frequency automated mandatory boluses (vAMB) versus PCEA with basal infusion 5 ml/h (PCEA5)",
  "format": "in vivo",
  "data": [
    {"smiles": "CCCN1CCCC[C@H]1C(=O)Nc1c(C)cccc1C", "note": "[ropivacaine]", "values": [
      {"measurement": "time-weighted mean hourly consumption of ropivacaine, inclusive of clinician-administered supplemental boluses", "setting": "Group PCEA5", "value": 11.1, "unit": "mg"},
      {"measurement": "total amount of ropivacaine used", "setting": "Group PCEA5", "value": 74.2, "unit": "mg"},
      {"measurement": "time-weighted mean hourly consumption of ropivacaine, inclusive of clinician-administered supplemental boluses", "setting": "Group vAMB", "value": 10.0, "unit": "mg"},
      {"measurement": "total amount of ropivacaine used", "setting": "Group vAMB", "value": 62.0, "unit": "mg"}
    ]}
  ]
}
